Source: patent US20110118144A1
Results are given in words; binding and its absence hold for the method and conditions named. Some entries that bind do so weakly or less than the wild type.

What was measured:
[1] = target: EGF-pIX fusion on M13-9 phage (M13 phage); experiment: phage ELISA, sEGFR-mimetibody coated on plate, bound phage detected with anti-M13/HRP
[2] = target: PHPEP 190-pIX fusion on M13-9 phage (M13 phage); experiment: as above

## soluble EGFR-mimetibody (from UniProt P00533 25-645) (Fc fusion)
[1]
  binding: binds
[2]
  binding: binds
